Test results: PubChem BioAssay AID1259354 (Paczesny and Yang Labs, IUPUI and University of Michigan, 2018)
Out of some 78,000 compounds screened, about 1,800 (2.3%) were called active. This list was built around the results that the source calls inconclusive (neither active nor inactive); the mix of calls is not that of the screen. No stated cut-off is given here; in the data, active means inhibition above about 30%; inconclusive means mostly about 10% to 28%; inactive means weaker than that.

Protein sequences, listed by entry. Tags and fused reporters are not part of them. Lines headed by an entry give the natural chain unless they say otherwise; changes in a name come on top.
UniProt Q01638: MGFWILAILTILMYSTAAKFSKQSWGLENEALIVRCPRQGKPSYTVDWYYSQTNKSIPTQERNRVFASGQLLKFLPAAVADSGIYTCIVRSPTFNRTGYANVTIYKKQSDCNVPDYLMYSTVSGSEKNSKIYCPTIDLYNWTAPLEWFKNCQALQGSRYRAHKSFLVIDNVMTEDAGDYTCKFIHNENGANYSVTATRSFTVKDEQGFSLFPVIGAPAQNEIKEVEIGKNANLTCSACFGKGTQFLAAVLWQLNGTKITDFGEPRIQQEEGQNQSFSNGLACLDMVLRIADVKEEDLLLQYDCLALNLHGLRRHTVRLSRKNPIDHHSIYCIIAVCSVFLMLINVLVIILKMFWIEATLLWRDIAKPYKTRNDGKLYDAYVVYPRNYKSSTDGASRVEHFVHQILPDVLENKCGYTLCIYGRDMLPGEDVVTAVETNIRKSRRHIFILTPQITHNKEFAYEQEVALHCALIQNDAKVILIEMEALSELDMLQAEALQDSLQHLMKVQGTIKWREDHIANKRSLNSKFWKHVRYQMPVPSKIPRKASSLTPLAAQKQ

biological target: Interleukin-1 receptor-like 1 (Homo sapiens) (UniProt Q01638); test: blocks human ST2 binding to IL-33, primary screen, biochemical, AlphaLISA (AID 1259354); settings: AlphaLISA ST2-Fc/biotin-IL-33 interaction, 1 h; at 17 µM, active compounds read high

| SMILES | inhibition |
| --- | --- |
| Cc1sc2nc3c(C(=O)NCc4ccccc4)cccn3c(=O)c2c1C | inactive |
| CCOc1ccc(CNc2nc(-c3nnc(-c4ccc(F)cc4)o3)nc3ccccc23)cc1 | inconclusive: 12% |
| O=C(CSc1nnc2c(n1)[nH]c1ccccc12)Nc1ccc(Cl)cc1[N+](=O)[O-] | inconclusive: 24% |
| O=C(Cn1cnc2c(cnn2-c2ccc(F)cc2)c1=O)N1CCN(c2ccccc2)CC1 | inconclusive: 10% |
| CN(C)c1ccc(CN2CCc3c([nH]c4ccccc34)C2)cc1 | active: 32% |
| CCc1ccc(CN2CCCC2c2c(C)noc2C)o1 (stereo not drawn) | inconclusive: 15% |
| Cc1ccn2cc(C(=O)N3CCOC(CCCC(C)C)C3)nc2c1 (stereo not drawn) | inactive |
| Cc1ccc(OCC(=O)N2CCC(n3cc(-c4ccccn4)nn3)CC2)cc1 | inconclusive: 12% |
| N#CC1=C(N)Oc2cc(O)ccc2C1c1ccc(F)cc1 (stereo not drawn) | inconclusive: 21% |
| O=C(NC1CCCC1)c1ccc(N2CCC(NCC3OCCc4ccccc43)CC2)cc1 (stereo not drawn) | inactive |
| Cc1cccc(Oc2coc3cc(OCC(=O)OCC(C)C)ccc3c2=O)c1 | inconclusive: 13% |
| CC1=NN(c2ccccc2)C(=O)/C1=C/c1cc(Cl)c(O)c(Cl)c1 | inconclusive: 28% |
| Cc1ccc([N+](=O)[O-])c(N[C@@H]2O[C@H](CO)[C@@H](O)[C@H]2O)c1 | inconclusive: 13% |
| CCN(Cc1ncccc1C(=O)O)Cc1c(F)cccc1Cl | inconclusive: 11% |
| O=C(C1CC1)N1CCN=C1SCc1ccccc1Cl | inconclusive: 17% |
| CN[C@@H](C)C(=O)N1CC[C@H](NC(=O)c2ccncc2)C[C@H]1C(=O)N[C@@H](Cc1ccc(OC)cc1)C(N)=O | inconclusive: 15% |
| CC1(C)CC(=O)C2=C(C1)Nc1ccccc1NC2c1cccnc1 (stereo not drawn) | inconclusive: 10% |
| CCOC(=O)Oc1c(Cl)cc2oc(=O)sc2c1Cl | inactive |
| Nc1nc2c(s1)CN(Cc1cc3n(n1)CCCNC3)CC2 | inactive |
| Cc1ccc(C(=O)NCCN(C)C)cc1Cl | inactive |
| CC(NCc1cc(F)ccc1C(F)(F)F)C(=O)NC1CCCC1 (stereo not drawn) | inconclusive: 10% |
| CSCCC(NC(=O)C1CCC(C)CC1)C(=O)N1CCN(c2ccccn2)CC1 (stereo not drawn) | inconclusive: 13% |
| O=C(Nn1cnnc1)c1ccc(Br)o1 | inactive |
| O=C(CSS(=O)(=O)O)Nc1ncc([N+](=O)[O-])s1 | inconclusive: 17% |

| SMILES | inhibition |
| --- | --- |
| CC(=O)N(O)CCCCCNC(=O)CC(O)(CC(=O)NCCCCCN(O)C(C)=O)C(=O)O | inconclusive: 15% |
| CC(C)(C)N1C(=O)NC2C1NC(=O)N2C(C)(C)C (stereo not drawn) | inconclusive: 12% |
| Cc1ccc(-n2cc(CN(C)Cc3nonc3C)c(-c3cccc(C)c3)n2)cc1 | inconclusive: 18% |
| N#COc1ccc(Oc2ccc(OC#N)cc2)cc1 | inconclusive: 11% |
| CC(=O)c1ccccc1OCC(=O)c1ccc(Br)cc1 | inconclusive: 20% |
| Cc1n[nH]c(C)c1CNC(=O)c1cc(COc2c(F)cccc2F)on1 | inconclusive: 12% |
| CCCOC(=O)C(CC)Oc1ccc2c(=O)c(Oc3cccc(C)c3)coc2c1 (stereo not drawn) | inactive |
| CN1C[C@@H](NC(=O)NCc2ccccc2)C[C@H]1c1nc(Cc2ccccc2)no1 | inconclusive: 15% |
| CC(C)NC(=O)c1ccc(C2CCCN2C(=O)/C=C/c2cnn(C)c2)s1 (stereo not drawn) | inconclusive: 13% |
| O=C(O)C1CC=CCC1C(=O)Nc1ccc2c(c1)OCO2 (stereo not drawn) | inactive |
| c1n[nH]c(SCCNC2CCN(c3ccc4c(c3)OCO4)CC2)n1 | inconclusive: 14% |
| Cc1noc(C)c1C(=O)N1CCCC(N2CCN(Cc3ccc4c(c3)OCO4)CC2)C1 (stereo not drawn) | inconclusive: 19% |
| O=C1Nc2ccccc2C(O)(C(=O)NCCN2CCOCC2)N1c1ccc(Cl)cc1 (stereo not drawn) | inactive |
| COc1cccc(CCC2CCCN(C(=O)c3cccnc3)C2)c1 (stereo not drawn) | inconclusive: 15% |
| c1ccn(-c2ccc(N3CCOCC3)cc2)c1 | inconclusive: 23% |
| CCN(CC)c1ncccc1CNC(=O)c1cc2nc(C)cc(C)n2n1 | inconclusive: 21% |
| Cc1cccn2c(CNC(=O)CCn3cncn3)cnc12 | inconclusive: 13% |
| O=C(c1ccccc1)c1ccc(N2CCN(C(=O)c3cccc(F)c3)CC2)c(F)c1 | inactive |
| O=C1CSC(c2ccc([N+](=O)[O-])cc2)N1c1c(F)cccc1F (stereo not drawn) | inconclusive: 15% |
| CC1(C)Cc2c(C#N)c(N3CCN(C(=O)c4ccco4)CC3)nc(Cc3ccccc3)c2CO1 | inconclusive: 16% |
| O=C(O)CN=C(NS(=O)(=O)c1ccccc1)c1ccccc1 | active: 38% |
| CC(=O)c1cc(C(=O)NC2CC(=O)N(C3CCCCCC3)C2)[nH]n1 (stereo not drawn) | inactive |
| C=CCn1c(-c2ccc(OC)cc2)csc1=Nc1c(C)n(C)n(-c2ccccc2)c1=O | inconclusive: 12% |
| COc1ccc(CCNS(=O)(=O)c2ccc(C(=O)N3CCCC3)s2)cc1OC | inactive |

Two records drawn at random from those above, as already listed:

| SMILES | inhibition |
| --- | --- |
| CC(C)(C)N1C(=O)NC2C1NC(=O)N2C(C)(C)C (stereo not drawn) | inconclusive: 12% |
| O=C1CSC(c2ccc([N+](=O)[O-])cc2)N1c1c(F)cccc1F (stereo not drawn) | inconclusive: 15% |

Next part

| SMILES | inhibition |
| --- | --- |
| Cc1nccn1S(=O)(=O)/C=C/c1ccc([N+](=O)[O-])cc1 | inactive |
| O=C(O)C[C@@H]1CCN(C(=O)c2ccc3c(c2)OCO3)C[C@@H]1CC1=NCCc2ccccc21 | inactive |
| Cn1cnc2cc(C(=O)Nc3cnc4n3CCCC4)cnc21 | inconclusive: 16% |
| C=C/C(C)=C/CC1C(=C)CCC2C(C)(C(=O)O)CCCC12C (stereo not drawn) | inconclusive: 12% |
| Cn1c(=O)c(/C=C/c2cccs2)nc2ccccc21 | active: 36% |
| COc1ccc([N+](=O)[O-])cc1NC(=O)c1ccnn1C | inconclusive: 23% |
| CC(=O)N1CC[C@H](c2nc3ccccc3s2)C1 | inconclusive: 22% |
| CCc1ccc(OCCCC(=O)NC2CCCCC2)cc1 | inconclusive: 26% |
| COc1ccccc1/C=C/CN1CCC(N2CCCC(C(=O)NC3CC3)C2)CC1 (stereo not drawn) | inactive |
| COc1ccc(-c2nc3s/c(=C\c4ccc(OC)c(OC)c4)c(=O)n3n2)cc1 | active: 38% |
| O=C(COc1ccccc1)Nc1ccc2n(c1=O)C[C@H]1C[C@@H]2CN(C(=O)c2cccnc2)C1 | inconclusive: 17% |
| CC1=CC(C)(C)N(C(=O)CN2C(=O)c3ccccc3C2=O)c2ccc(C)cc21 | inconclusive: 20% |
| Cn1c(=O)n(C)c2cc(CNc3nccc(CCC(F)(F)F)n3)ccc21 | inconclusive: 19% |
| Cc1nc2ccc(C(=O)N3CCC(=O)N(CC4CC4)C(C(C)C)C3)cc2nc1C (stereo not drawn) | inconclusive: 12% |
| O=[N+]([O-])c1cccc(N(CC(O)Cn2cnc3ccccc32)S(=O)(=O)c2ccccc2)c1 (stereo not drawn) | inconclusive: 13% |
| CCCn1ccnc1-c1nccn1-c1cccc(-c2ccnc(C)n2)c1 | inconclusive: 25% |
| COCCN1C(=O)N(Cc2cccc(OC)c2)C(=O)C12CCN(C/C=C/c1ccccc1)CC2 | inconclusive: 21% |
| Cc1ccc(C(c2sc3nc(C)nn3c2O)N2CCc3ccccc3C2)cc1 (stereo not drawn) | inactive |
| CCN(CC1CCCO1)C(=O)C1CCCN(c2nc(C)c3ccc(OC)cc3n2)C1 (stereo not drawn) | inactive |
| O=C1C=CC(=O)C(C2=C3C(=O)N(CCc4ccccc4)CC(=O)N3CCC2)=C1 | active: 38% |
| c1cc(-c2ccc(CN3CCCCC3)cc2)[nH]n1 | inactive |
| Cc1ccsc1CN1CCN(Cc2ccc3c(c2)OCO3)CC1 | inconclusive: 10% |
| Cc1ccc(C2(O)CCN(S(=O)(=O)c3ccc(C)c(F)c3)CC2)nc1 | inactive |
| N=C1SCC(=O)N1c1nc(-c2ccccc2)cs1 | inconclusive: 26% |

| SMILES | inhibition |
| --- | --- |
| O=C(NC(Nc1cccc([N+](=O)[O-])c1)C(Cl)(Cl)Cl)c1cccc(Cl)c1 (stereo not drawn) | inactive |
| Cc1ccc(S(=O)(=O)NC[C@H]2O[C@@H](CO)[C@@H](O)[C@H]2N2CCN(c3cccc(C(F)(F)F)c3)CC2)cc1 | inconclusive: 14% |
| O=C(Nc1nc(-c2cc3ccccc3oc2=O)cs1)c1cc(=O)c2ccccc2o1 | inactive |
| C[C@H]1[C@@H]2[C@@H](O)C([C@H](C)C(=O)NCc3cc(F)cc(F)c3)CC[C@@]2(C)CC[C@@H]1NC(=O)Cc1ccccc1 (stereo partly drawn) | inactive |
| COc1ccc(N(C(C)C(=O)Nc2ccc3c(c2)OCCO3)S(C)(=O)=O)cc1 (stereo not drawn) | inconclusive: 10% |
| Cc1cccc(CN2CCCN(CC(=O)Nc3ccccc3)S2(=O)=O)c1 | inconclusive: 19% |
| CN1CCN(C(=O)CC[C@H]2CNC(=O)[C@@H]3[C@@H](CCN3Cc3cccc(OC(F)(F)F)c3)N2C)CC1 | inconclusive: 19% |
| Clc1ccc(C2=NN3COc4ccccc4C3C2)cc1 (stereo not drawn) | inconclusive: 14% |
| Fc1ccc(C2CCCN2Cc2ccc3nonc3c2)cc1 (stereo not drawn) | inconclusive: 26% |
| CCOC(=O)c1[nH]c2ccccc2c1NC(=O)c1c(-c2ccccc2Cl)noc1C | inconclusive: 14% |
| COCCCNC(=O)c1cc2cc3cc(OC)ccc3nc2s1 | inactive |
| O=C(CSc1nc2c(c(=O)n1-c1ccc(Cl)cc1)SCC2)Nc1ccc(F)cc1 | inconclusive: 15% |
| Cc1[nH]cnc1CN1CCc2[nH]nc(-c3ccc(-c4ccccc4)cc3)c2C1 | inactive |
| Cc1ccc(NC(=O)N2CCOCC2)cc1 | inconclusive: 17% |
| O=C1OC(c2cccc(I)c2)=N/C1=C\c1ccccc1 | inconclusive: 19% |
| COc1ccc(-c2cc(C(F)(F)F)nc(NCc3cccs3)n2)cc1 | inactive |
| CCN(C(=O)Cc1c(C(=O)O)[nH]c2ccccc12)c1ccc(F)cc1 | inactive |
| CC(=O)NCCc1c[nH]c2ccc(O)cc12 | inconclusive: 16% |
| O=C1N[C@H](Cc2ccc(O)cc2)C(=O)N2CC[C@H](NS(=O)(=O)c3ccc(Cl)cc3)C[C@@H]12 | inconclusive: 27% |
| COc1cc(C2CC(=O)N(CC(=O)c3ccccc3)c3ccccc3S2)cc(OC)c1OC (stereo not drawn) | inconclusive: 10% |
| O=C(NC1CCC(n2cnnc2)CC1)c1cn2ccsc2n1 (stereo not drawn) | inactive |

For reference, 5 of the compounds above.

| SMILES | inhibition |
| --- | --- |
| Cn1c(=O)n(C)c2cc(CNc3nccc(CCC(F)(F)F)n3)ccc21 | inconclusive: 19% |
| Cc1nc2ccc(C(=O)N3CCC(=O)N(CC4CC4)C(C(C)C)C3)cc2nc1C (stereo not drawn) | inconclusive: 12% |
| O=[N+]([O-])c1cccc(N(CC(O)Cn2cnc3ccccc32)S(=O)(=O)c2ccccc2)c1 (stereo not drawn) | inconclusive: 13% |
| CCCn1ccnc1-c1nccn1-c1cccc(-c2ccnc(C)n2)c1 | inconclusive: 25% |
| COCCN1C(=O)N(Cc2cccc(OC)c2)C(=O)C12CCN(C/C=C/c1ccccc1)CC2 | inconclusive: 21% |
